Laboratory results reported in PMC5444726, “A CD44-specific peptide, RP-1, exhibits capacities of assisting diagnosis and predicting prognosis of gastric cancer” (Oncotarget, 2017).

System: CD44 in gastric carcinoma and surrounding tissues
Assay: Immunohistochemistry of human gastric cancer tissue microarray
Protocol: Prepared paraffin-embedded sections were deparaffinized, rehydrated, retrieved and blocked with 5% BSA (w/v) in PBS at ambient temperature for 30 min. Then, sections were incubated with 100 μM biotin labeled RP-1 peptide or human specific rabbit anti-CD44 monoclonal antibody (1:200, ZSGB-BIO, Beijing, China) overnight at 4°C. After PBS washing for three times, sections were subsequently incubated with streptavidin-HRP (1:500, Proteintech, Wuhan, China) and goat anti-rabbit secondary antibody (1:300, BOSTER, Wuhan, China). Diaminobenzidine (DAB, ZSGB-BIO, Beijing, China) was used as a chromogen. Finally, the sections were counterstained with hematoxylin and mounted with neutral balsam.
Two TMA slides (Shanghai Outdo Biotech Co LTD, Shanghai, China), each containing 100 GC tissues samples (including 66 adenocarcinoma, 19 tubular adenocarcinoma, 8 mucinous adenocarcinoma, 2 undifferentiated carcinoma and 5 signet-ring cell carcinoma tissue samples) and 80 surrounding tissue samples from 100 patients, were used to evaluate the diagnostic and prognostic effects of RP-1. Samples were obtained from treatment-naive patients with written informed consent signed and dated. Age of the 100 patients with GC ranged from 32 to 81 years (mean, 64.4 years). Their clinicopathological characteristics were described in Table 2. The TNM stage of all patients with GC was assessed according to the American Joint Commission for Cancer (AJCC 7th edition) and tumors were histologically classified according to the criteria described by the World Health Organization (2000). The Medical Ethics Committee of Taizhou Hospital of Zhejiang province reviewed and approved all studies.
We performed immunohistochemical staining of TMA slides with RP-1 and human specific anti-CD44 monoclonal antibody by following the procedure described in the section Immunohistochemistry. The immunoreactivity was assessed with the immunohistochemistry score (HSCORE) system, which evaluated the staining intensity and percentages of positive cells stained at a specific magnitude of intensity. The HSCORE was calculated using the equation HSCORE=∑Pi(i) (i = 0, 1, 2, 3, Pi = 0–100%), in which i was the staining intensity (0, no staining; 1, weak staining; 2, moderate staining; 3, strong staining) and Pi was the percentage of positive cells on a scale of 0% to 100%. Positive cell count was assessed in 5 randomly selected fields of vision with a microscope (400×). All immunohistochemical evaluations were conducted by two independent pathologists […].
Receiver–operator curve (ROC) analysis was performed to determine the cut-off score for both RP-1 peptide and anti-CD44 monoclonal antibody. […]

WHPWSYLWTQQA [RP-1, CD44-specific peptide … screened from a 12-mer phage peptide library]
false-positive rate (80 surrounding tissue samples): 12.5% | specificity (80 surrounding tissue samples, RP-1 vs antibody P = 0.403): 87.5% | sensitivity (100 gastric carcinoma samples, RP-1 vs antibody P = 0.124): 73.0% | AUC of ROC curve (diagnosis of GC, carcinoma vs surrounding tissue): 0.86
